Reference: PMC10883266, “TTLL12 is required for primary ciliary axoneme formation in polarized epithelial cells” (EMBO Reports, 2023)
No constants are given. Whether binding was seen depends on the method and setting. Binding seen in cells or lysates may run through a third protein. Binding calls can cover weak binding; strength is not graded here. Where a sequence is shown, tags or fusion partners need not be part of it.

Target: T1, GFP-Rab19 (UniProt A4D1S5)
T1 sequence: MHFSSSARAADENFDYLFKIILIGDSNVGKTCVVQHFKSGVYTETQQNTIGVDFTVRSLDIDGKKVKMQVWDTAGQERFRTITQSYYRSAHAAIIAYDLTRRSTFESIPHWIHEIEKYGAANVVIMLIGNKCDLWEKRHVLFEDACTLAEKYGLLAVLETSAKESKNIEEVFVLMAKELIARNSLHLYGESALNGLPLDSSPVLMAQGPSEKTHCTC
Assay: co-IP; GFP-Rab19 or GFP-only immunoprecipitated from MDCK cells; precipitate blotted for endogenous TTLL12

## endogenous TTLL12 (MDCK cells) (Canis familiaris (endogenous in MDCK II))
  binding: binds
